Source: PubChem BioAssay AID652243 (Drosophila RNAi Screening Center, 2013)
Purpose: 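Fly regulators of androgen-dependent reporter output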 (primary screen). Cell system: Drosophila S2R+ cells. Knock-down reagent: long dsRNA against Drosophila genes. Time to read-out: 72 h (48 h, then 24 h hormone). Treatment: synthetic androgen R1881 at 10 nM for 24 h. Measured: 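Per-well raw luminescence of the androgen-driven firefly reporter and of the Renilla control, two replicates each, without normalisation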. Scale: firefly reporter light: higher = more light from androgen-responsive reporter; Renilla control light: higher = more constitutive control signal (cell number, transfection). Active means: 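Across duplicate plates, a knock-down whose log firefly/Renilla ratio shifted a set fold down or up from the GFP/LacZ control mean was a hit; the downward cut appears as both 1.5 and 3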. Calls: active = hit: reporter lowered or raised; inactive = no hit.
The screen tested about 24,000 reagents; this is a random part of those that have a named target and a result. Over the whole deposit, 246 (1%) were called active. 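Plates not normalised; calls are printed but the firefly/Renilla ratio behind them is not deposited; fold cut for lowering reported inconsistently.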 Raw values vary from plate to plate and are shown uncorrected. Names joined by + are all predicted targets of the reagent. The record does not give: the amount of reagent.

After knock-down of CrebA (GeneID 39682) [DRSC11122], the screen gave firefly reporter light, replicate 1 = 6609; firefly reporter light, replicate 2 = 16141; Renilla control light, replicate 1 = 1.30e5; Renilla control light, replicate 2 = 1.43e5; inactive. Against CYLD (GeneID 34380) [DRSC02870], the entry reads firefly reporter light, replicate 1 = 2.57e5; firefly reporter light, replicate 2 = 2.78e5; Renilla control light, replicate 1 = 1.36e6; Renilla control light, replicate 2 = 1.80e6; inactive. Silencing of CG33490 (GeneID 2768970) [DRSC10587] gave: firefly reporter light, replicate 1 = 9.94e5; firefly reporter light, replicate 2 = 6.90e5; Renilla control light, replicate 1 = 1.01e6; Renilla control light, replicate 2 = 9.34e5; inactive. Depletion of CG12768 (GeneID 40513) [DRSC23215] resulted in: firefly reporter light, replicate 1 = 4.78e5; firefly reporter light, replicate 2 = 4.30e5; Renilla control light, replicate 1 = 1.53e6; Renilla control light, replicate 2 = 1.91e6; inactive. CG12768 (GeneID 40513) [DRSC28549] gave firefly reporter light, replicate 1 = 4.18e5; firefly reporter light, replicate 2 = 6.72e5; Renilla control light, replicate 1 = 6.54e5; Renilla control light, replicate 2 = 1.21e6; inactive. Depletion of Prosbeta4 (GeneID 34999) [DRSC02603] gave: firefly reporter light, replicate 1 = 1.53e5; firefly reporter light, replicate 2 = 1.42e5; Renilla control light, replicate 1 = 1.68e6; Renilla control light, replicate 2 = 1.35e6; inactive.

Against CG8191 + CG12379 [DRSC19451], the values are firefly reporter light, replicate 1 = 9.77e5; firefly reporter light, replicate 2 = 7.31e5; Renilla control light, replicate 1 = 4.09e6; Renilla control light, replicate 2 = 2.56e6; inactive. With knock-down of Pdp1 (GeneID 45588) [DRSC08896], the record shows firefly reporter light, replicate 1 = 21188; firefly reporter light, replicate 2 = 8866; Renilla control light, replicate 1 = 31679; Renilla control light, replicate 2 = 32391; inactive. With knock-down of Pdp1 (GeneID 45588) [DRSC08897], the screen gave firefly reporter light, replicate 1 = 1968; firefly reporter light, replicate 2 = 4457; Renilla control light, replicate 1 = 14358; Renilla control light, replicate 2 = 18606; active. With knock-down of Pdp1 (GeneID 45588) [DRSC11251], the record shows firefly reporter light, replicate 1 = 2.24e5; firefly reporter light, replicate 2 = 2.26e5; Renilla control light, replicate 1 = 1.98e6; Renilla control light, replicate 2 = 2.71e6; inactive. With knock-down of Pdp1 (GeneID 45588) [DRSC22973], the screen gave firefly reporter light, replicate 1 = 4.48e5; firefly reporter light, replicate 2 = 5.46e5; Renilla control light, replicate 1 = 1.28e6; Renilla control light, replicate 2 = 1.10e6; inactive. Knock-down of CG2816 (GeneID 33595) [DRSC00539] gave: firefly reporter light, replicate 1 = 1.18e5; firefly reporter light, replicate 2 = 1.18e5; Renilla control light, replicate 1 = 7.48e5; Renilla control light, replicate 2 = 1.04e6; inactive.

Depletion of CG2816 (GeneID 33595) [DRSC24375] gave: firefly reporter light, replicate 1 = 6.07e5; firefly reporter light, replicate 2 = 7.48e5; Renilla control light, replicate 1 = 7.40e5; Renilla control light, replicate 2 = 6.59e5; inactive. fred (GeneID 33613) [DRSC00349] gave firefly reporter light, replicate 1 = 3.05e5; firefly reporter light, replicate 2 = 2.20e5; Renilla control light, replicate 1 = 1.12e6; Renilla control light, replicate 2 = 9.33e5; inactive. Against fred (GeneID 33613) [DRSC00599], the values are firefly reporter light, replicate 1 = 5.53e5; firefly reporter light, replicate 2 = 5.84e5; Renilla control light, replicate 1 = 3.21e6; Renilla control light, replicate 2 = 3.14e6; inactive. fred (GeneID 33613) [DRSC00601] gave firefly reporter light, replicate 1 = 1.15e5; firefly reporter light, replicate 2 = 83956; Renilla control light, replicate 1 = 6.47e5; Renilla control light, replicate 2 = 6.55e5; inactive. fred (GeneID 33613) [DRSC00602] showed firefly reporter light, replicate 1 = 1.53e5; firefly reporter light, replicate 2 = 76237; Renilla control light, replicate 1 = 1.32e6; Renilla control light, replicate 2 = 6.00e5; inactive. For fred (GeneID 33613) [DRSC21906], the values are firefly reporter light, replicate 1 = 6.12e5; firefly reporter light, replicate 2 = 7.15e5; Renilla control light, replicate 1 = 1.41e6; Renilla control light, replicate 2 = 1.51e6; inactive.

Depletion of verm (GeneID 40149) [DRSC11038] gave: firefly reporter light, replicate 1 = 43296; firefly reporter light, replicate 2 = 31871; Renilla control light, replicate 1 = 4.85e5; Renilla control light, replicate 2 = 3.06e5; inactive. After knock-down of verm (GeneID 40149) [DRSC24665] the results were firefly reporter light, replicate 1 = 6.72e5; firefly reporter light, replicate 2 = 8.73e5; Renilla control light, replicate 1 = 6.40e5; Renilla control light, replicate 2 = 9.31e5; inactive. Knock-down of Rab3 (GeneID 36127) [DRSC07523] came out at: firefly reporter light, replicate 1 = 1.03e6; firefly reporter light, replicate 2 = 7.11e5; Renilla control light, replicate 1 = 2.56e6; Renilla control light, replicate 2 = 1.88e6; inactive.
